Laboratory results taken from US7306904.

Sequences of proteins named here, by UniProt entry; tags and fusion partners are left off. Residues count along the entry.
UniProt P16234, residues 24-524: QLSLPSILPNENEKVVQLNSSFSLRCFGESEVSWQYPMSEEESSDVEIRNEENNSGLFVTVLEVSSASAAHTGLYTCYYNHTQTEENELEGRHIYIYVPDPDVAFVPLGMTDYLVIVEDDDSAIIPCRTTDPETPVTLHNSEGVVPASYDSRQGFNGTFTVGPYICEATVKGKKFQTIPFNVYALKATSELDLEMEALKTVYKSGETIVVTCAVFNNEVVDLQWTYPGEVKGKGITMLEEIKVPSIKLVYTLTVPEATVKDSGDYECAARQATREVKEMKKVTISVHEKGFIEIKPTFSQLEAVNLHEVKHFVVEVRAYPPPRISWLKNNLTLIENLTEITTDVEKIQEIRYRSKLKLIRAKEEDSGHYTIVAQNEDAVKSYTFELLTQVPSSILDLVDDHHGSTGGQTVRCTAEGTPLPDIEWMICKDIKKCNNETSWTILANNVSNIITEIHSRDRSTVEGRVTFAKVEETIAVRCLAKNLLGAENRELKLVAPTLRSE

Molecular target: soluble PDGF-alpha receptor (UniProt P16234)
Assay: proximity ligation competition assay in solution (aptamer proximity-probes, TaqMan PCR read-out)

PDGF-AA (from UniProt P04085) (ligand) was tested, and the binding was “binds”.

These are yes or no findings as the source states them, for the method shown. In cells and extracts the contact can be indirect. Binding can be weak; no strength is given.
